Data published in patent US12172968B1, “4-[4,4-bis(4-chlorophenyl)-2,5-dioxoimidazolidin-1-yl]butanoic acid as an antimicrobial compound” (KING FAISAL UNIVERSITY, priority 2024, dated 2024).
At least one compound was matched to its structure with a doubt left.

Columns and labels:
Type in all cases: cell-based
[1] = test system: Escherichia Coli; experiment: Antimicrobial testing by agar dilution, E. Coli
Protocol: (§1) The antimicrobial properties of the 4-[4,4-bis(4-chlorophenyl)-2,5-dioxoimidazolidin-1-yl]butanoic acid were studied by the method of agar dilution. Test solutions of each compound was prepared in concentration of 1% using dimethylformamide as a solvent then they are diluted in physiological solution to obtain the final experimental dilutions 1:100, 1:200, 1:400, 1:800. The effect of these substances are compared with furacillin in a controllable study. The testing microbes used were gram positive bacteria Staphylococcus aereus, gram negative bacteria Escherichia Coli, Pseudomonas aeruginosa and Candida albicans fungi were taken. The experiments used for this survey were meat-pentonlu agar (EPA) for cultivation of bacteria and Saburo environment for fungi. Each experiment used iml of test solution on each plate 500 min. Add 2 drops of emulsified with microbes feel. All experimental samples were taken from the agar after 10, 20, 40, 60 minutes in the environment on the basis of Patrk planted. Bacteria were cultivated at a temperature of 37° C. for 1 day and the mushroom was kept in a thermostat for […] at a temperature of 28° C. in the. Then results were checked.

[2] = test system: Candida albicans; experiment: Antimicrobial testing by agar dilution, Candida albicans
Protocol: as §1

[3] = test system: Staphylococcus aereus; experiment: Antimicrobial testing by agar dilution, St. Aereus
Protocol: as §1

[4] = test system: Pseudomonas aeruginosa; experiment: Antimicrobial testing by agar dilution, Ps. aeruginosa
Protocol: as §1

[5] = exposure time 10 min, dilution rate 1:100
[6] = exposure time 10 min, dilution rate 1:200
[7] = exposure time 10 min, dilution rate 1:400
[8] = exposure time 10 min, dilution rate 1:800
[9] = exposure time 20 min, dilution rate 1:100
[10] = exposure time 20 min, dilution rate 1:200
[11] = exposure time 20 min, dilution rate 1:400
[12] = exposure time 20 min, dilution rate 1:800
[13] = exposure time 40 min, dilution rate 1:100
[14] = exposure time 40 min, dilution rate 1:200
[15] = exposure time 40 min, dilution rate 1:400
[16] = exposure time 40 min, dilution rate 1:800
[17] = exposure time 60 min, dilution rate 1:100
[18] = exposure time 60 min, dilution rate 1:200
[19] = exposure time 60 min, dilution rate 1:400
[20] = exposure time 60 min, dilution rate 1:800

Compound: NC(=O)N/N=C/c1ccc([N+](=O)[O-])o1 [Furacilin]
- antimicrobial activity [1, 5]: −
- antimicrobial activity [1, 6]: +
- antimicrobial activity [1, 7]: +
- antimicrobial activity [1, 8]: +
- antimicrobial activity [1, 9]: −
- antimicrobial activity [1, 10]: +
- antimicrobial activity [1, 11]: +
- antimicrobial activity [1, 12]: +
- antimicrobial activity [1, 13]: −
- antimicrobial activity [1, 14]: +
- antimicrobial activity [1, 15]: +
- antimicrobial activity [1, 16]: +
- antimicrobial activity [1, 17]: −
- antimicrobial activity [1, 18]: +
- antimicrobial activity [1, 19]: +
- antimicrobial activity [1, 20]: +
- antimicrobial activity [2, 5]: −
- antimicrobial activity [2, 6]: +
- antimicrobial activity [2, 7]: +
- antimicrobial activity [2, 8]: +
- antimicrobial activity [2, 9]: −
- antimicrobial activity [2, 10]: +
- antimicrobial activity [2, 11]: +
- antimicrobial activity [2, 12]: +
- antimicrobial activity [2, 13]: +
- antimicrobial activity [2, 14]: +
- antimicrobial activity [2, 15]: +
- antimicrobial activity [2, 16]: +
- antimicrobial activity [2, 17]: +
- antimicrobial activity [2, 18]: +
- antimicrobial activity [2, 19]: +
- antimicrobial activity [2, 20]: +
- antimicrobial activity [3, 5]: −
- antimicrobial activity [3, 6]: +
- antimicrobial activity [3, 7]: +
- antimicrobial activity [3, 8]: +
- antimicrobial activity [3, 9]: −
- antimicrobial activity [3, 10]: +
- antimicrobial activity [3, 11]: +
- antimicrobial activity [3, 12]: +
- antimicrobial activity [3, 13]: −
- antimicrobial activity [3, 14]: +
- antimicrobial activity [3, 15]: +
- antimicrobial activity [3, 16]: +
- antimicrobial activity [3, 17]: −
- antimicrobial activity [3, 18]: +
- antimicrobial activity [3, 19]: +
- antimicrobial activity [3, 20]: +
- antimicrobial activity [4, 5]: +
- antimicrobial activity [4, 6]: +
- antimicrobial activity [4, 7]: +
- antimicrobial activity [4, 8]: +
- antimicrobial activity [4, 9]: +
- antimicrobial activity [4, 10]: +
- antimicrobial activity [4, 11]: +
- antimicrobial activity [4, 12]: +
- antimicrobial activity [4, 13]: +
- antimicrobial activity [4, 14]: +
- antimicrobial activity [4, 15]: +
- antimicrobial activity [4, 16]: +
- antimicrobial activity [4, 17]: +
- antimicrobial activity [4, 18]: +
- antimicrobial activity [4, 19]: +
- antimicrobial activity [4, 20]: +
